Laboratory results taken from US20250041284A1, “TREATMENT OF NEUROLOGICAL DISORDERS” (Praxis Precision Medicines, Inc., priority 2022, published 2025).

Experiment: Protective index (sLMA TC50 divided by MES EC50)

SMILES	protective index (based on calculated free plasma concentrations)	protective index (plasma) [×]
CCOC(F)(F)c1nnc2ccc(-c3cnc(OCC(F)(F)F)c(F)c3)cn12 [Compound 1]	approximately 16 fold	–
NC(=O)N1c2ccccc2C=Cc2ccccc21 [Carbamazepine, carbamazepine]	–	3.4
